Data on 28 targets can be found in the supplement of paper PMC12819154, “High-throughput peptide-centric local stability assay extends protein–ligand identification to membrane proteins, tissues and bacteria” (Nature Structural & Molecular Biology, 2025).

Amino acid sequences for entries named in this document (tags omitted). A change or cut given only in a name is not applied to a line headed by its entry.
UniProt Q96JN0: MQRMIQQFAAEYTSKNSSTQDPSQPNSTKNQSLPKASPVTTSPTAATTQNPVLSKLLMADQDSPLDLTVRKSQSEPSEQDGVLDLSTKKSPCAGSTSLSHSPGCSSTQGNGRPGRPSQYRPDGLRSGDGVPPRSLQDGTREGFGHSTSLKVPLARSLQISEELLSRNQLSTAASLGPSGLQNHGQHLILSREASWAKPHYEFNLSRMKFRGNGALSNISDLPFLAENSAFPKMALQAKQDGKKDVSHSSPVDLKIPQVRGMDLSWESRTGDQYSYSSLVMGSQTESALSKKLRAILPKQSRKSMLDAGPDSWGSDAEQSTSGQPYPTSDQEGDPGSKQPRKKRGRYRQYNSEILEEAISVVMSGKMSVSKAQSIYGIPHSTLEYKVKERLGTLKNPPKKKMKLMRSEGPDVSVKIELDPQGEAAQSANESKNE
UniProt Q96MX3: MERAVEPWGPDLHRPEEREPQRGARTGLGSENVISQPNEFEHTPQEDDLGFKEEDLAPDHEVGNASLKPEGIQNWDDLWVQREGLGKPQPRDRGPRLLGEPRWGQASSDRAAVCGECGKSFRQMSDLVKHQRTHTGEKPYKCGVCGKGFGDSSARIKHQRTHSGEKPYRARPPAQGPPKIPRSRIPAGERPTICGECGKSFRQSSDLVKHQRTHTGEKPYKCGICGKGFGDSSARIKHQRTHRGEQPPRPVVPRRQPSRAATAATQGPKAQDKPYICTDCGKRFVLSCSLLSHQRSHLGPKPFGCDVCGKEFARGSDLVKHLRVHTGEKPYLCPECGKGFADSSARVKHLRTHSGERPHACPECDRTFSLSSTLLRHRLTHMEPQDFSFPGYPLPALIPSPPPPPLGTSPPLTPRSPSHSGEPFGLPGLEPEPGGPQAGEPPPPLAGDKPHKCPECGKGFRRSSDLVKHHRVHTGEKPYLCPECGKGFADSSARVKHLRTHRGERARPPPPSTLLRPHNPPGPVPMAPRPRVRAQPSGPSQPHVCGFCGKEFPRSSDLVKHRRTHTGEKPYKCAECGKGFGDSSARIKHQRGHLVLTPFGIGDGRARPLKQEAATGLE
UniProt Q96S21: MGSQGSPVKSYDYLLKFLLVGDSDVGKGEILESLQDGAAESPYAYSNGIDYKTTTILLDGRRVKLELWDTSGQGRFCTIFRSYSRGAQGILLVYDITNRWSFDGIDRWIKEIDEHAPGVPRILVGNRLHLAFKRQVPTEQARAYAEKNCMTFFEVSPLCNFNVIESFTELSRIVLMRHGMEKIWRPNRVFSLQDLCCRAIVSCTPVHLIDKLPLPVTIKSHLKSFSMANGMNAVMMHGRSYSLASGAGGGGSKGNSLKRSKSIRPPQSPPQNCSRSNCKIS
UniProt Q96PV7: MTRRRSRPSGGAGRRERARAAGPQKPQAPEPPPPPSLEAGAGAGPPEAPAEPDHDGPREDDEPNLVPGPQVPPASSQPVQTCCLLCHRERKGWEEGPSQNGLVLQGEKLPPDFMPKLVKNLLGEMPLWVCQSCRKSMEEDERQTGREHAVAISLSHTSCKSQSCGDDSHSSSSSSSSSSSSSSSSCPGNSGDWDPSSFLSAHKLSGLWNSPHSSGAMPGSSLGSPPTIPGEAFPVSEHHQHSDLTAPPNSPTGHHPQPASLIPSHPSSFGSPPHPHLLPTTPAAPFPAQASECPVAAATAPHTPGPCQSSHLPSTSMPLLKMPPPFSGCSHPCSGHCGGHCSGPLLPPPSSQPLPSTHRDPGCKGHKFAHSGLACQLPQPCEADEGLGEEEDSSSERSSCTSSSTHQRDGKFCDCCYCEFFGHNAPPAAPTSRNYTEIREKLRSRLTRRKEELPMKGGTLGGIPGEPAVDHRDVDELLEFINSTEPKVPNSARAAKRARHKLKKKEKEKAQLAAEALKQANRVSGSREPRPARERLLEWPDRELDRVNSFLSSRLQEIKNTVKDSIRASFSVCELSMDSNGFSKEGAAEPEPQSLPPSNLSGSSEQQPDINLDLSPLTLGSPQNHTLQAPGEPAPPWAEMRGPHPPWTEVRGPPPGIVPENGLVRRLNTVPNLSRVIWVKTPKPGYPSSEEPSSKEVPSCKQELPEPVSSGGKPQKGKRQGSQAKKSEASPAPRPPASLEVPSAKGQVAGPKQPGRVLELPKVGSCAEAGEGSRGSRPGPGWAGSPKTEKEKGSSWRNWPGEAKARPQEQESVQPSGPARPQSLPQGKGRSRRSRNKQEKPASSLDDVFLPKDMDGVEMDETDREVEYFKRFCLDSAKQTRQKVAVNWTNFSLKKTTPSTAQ
UniProt Q96P16: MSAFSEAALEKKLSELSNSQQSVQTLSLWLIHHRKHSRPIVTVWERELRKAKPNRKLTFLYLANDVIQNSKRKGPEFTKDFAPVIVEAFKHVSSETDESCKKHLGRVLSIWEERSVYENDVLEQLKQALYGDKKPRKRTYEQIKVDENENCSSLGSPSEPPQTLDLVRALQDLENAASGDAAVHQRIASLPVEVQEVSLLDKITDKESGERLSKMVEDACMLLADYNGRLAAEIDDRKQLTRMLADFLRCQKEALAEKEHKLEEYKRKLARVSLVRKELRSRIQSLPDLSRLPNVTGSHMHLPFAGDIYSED
UniProt Q96IZ5: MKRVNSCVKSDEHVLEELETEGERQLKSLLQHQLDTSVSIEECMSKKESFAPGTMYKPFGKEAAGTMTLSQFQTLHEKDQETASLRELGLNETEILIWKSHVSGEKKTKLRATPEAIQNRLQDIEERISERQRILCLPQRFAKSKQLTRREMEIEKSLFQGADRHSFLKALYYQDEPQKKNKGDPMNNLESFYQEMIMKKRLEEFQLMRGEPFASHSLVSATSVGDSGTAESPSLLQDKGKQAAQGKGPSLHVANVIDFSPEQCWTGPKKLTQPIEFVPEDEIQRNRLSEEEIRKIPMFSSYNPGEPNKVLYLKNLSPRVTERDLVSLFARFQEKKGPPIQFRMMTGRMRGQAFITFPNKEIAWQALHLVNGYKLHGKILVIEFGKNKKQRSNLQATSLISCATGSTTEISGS
UniProt Q96M11: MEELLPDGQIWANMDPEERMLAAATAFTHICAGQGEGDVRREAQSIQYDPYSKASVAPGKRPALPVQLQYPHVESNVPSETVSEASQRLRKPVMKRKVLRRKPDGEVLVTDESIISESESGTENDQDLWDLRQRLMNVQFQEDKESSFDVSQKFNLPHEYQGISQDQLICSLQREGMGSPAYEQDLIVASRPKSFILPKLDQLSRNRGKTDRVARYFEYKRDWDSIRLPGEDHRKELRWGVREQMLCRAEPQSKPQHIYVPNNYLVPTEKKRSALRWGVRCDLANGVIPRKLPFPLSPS
UniProt Q96JB2: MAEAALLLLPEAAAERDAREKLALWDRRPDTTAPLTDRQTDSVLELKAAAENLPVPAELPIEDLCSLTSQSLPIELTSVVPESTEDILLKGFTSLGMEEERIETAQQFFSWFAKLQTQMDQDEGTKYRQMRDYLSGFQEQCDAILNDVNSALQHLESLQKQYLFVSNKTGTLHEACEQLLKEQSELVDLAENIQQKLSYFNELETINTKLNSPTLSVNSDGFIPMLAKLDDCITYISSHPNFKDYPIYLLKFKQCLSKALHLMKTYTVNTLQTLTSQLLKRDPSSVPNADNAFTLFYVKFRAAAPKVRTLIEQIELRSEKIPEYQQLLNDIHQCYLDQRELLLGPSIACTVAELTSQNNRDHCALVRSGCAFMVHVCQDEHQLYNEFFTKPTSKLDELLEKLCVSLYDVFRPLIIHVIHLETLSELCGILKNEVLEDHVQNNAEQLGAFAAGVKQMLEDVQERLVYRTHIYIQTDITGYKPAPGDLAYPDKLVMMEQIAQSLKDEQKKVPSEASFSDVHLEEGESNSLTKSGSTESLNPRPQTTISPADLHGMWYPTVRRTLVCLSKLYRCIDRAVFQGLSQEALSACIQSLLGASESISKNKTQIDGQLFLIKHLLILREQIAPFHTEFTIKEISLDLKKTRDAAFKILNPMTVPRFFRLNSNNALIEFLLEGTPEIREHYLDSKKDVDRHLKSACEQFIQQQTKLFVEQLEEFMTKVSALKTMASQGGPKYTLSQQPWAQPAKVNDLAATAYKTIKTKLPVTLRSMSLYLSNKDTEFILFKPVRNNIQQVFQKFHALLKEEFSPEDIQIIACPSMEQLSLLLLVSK
UniProt Q96GV9: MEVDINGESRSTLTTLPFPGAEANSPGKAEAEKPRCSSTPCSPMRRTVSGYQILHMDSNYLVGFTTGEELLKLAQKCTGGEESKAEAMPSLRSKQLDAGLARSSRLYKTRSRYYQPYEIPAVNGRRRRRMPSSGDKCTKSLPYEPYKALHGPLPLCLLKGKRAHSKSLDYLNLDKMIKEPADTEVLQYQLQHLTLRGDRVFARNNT
UniProt Q96RT7, whole entry: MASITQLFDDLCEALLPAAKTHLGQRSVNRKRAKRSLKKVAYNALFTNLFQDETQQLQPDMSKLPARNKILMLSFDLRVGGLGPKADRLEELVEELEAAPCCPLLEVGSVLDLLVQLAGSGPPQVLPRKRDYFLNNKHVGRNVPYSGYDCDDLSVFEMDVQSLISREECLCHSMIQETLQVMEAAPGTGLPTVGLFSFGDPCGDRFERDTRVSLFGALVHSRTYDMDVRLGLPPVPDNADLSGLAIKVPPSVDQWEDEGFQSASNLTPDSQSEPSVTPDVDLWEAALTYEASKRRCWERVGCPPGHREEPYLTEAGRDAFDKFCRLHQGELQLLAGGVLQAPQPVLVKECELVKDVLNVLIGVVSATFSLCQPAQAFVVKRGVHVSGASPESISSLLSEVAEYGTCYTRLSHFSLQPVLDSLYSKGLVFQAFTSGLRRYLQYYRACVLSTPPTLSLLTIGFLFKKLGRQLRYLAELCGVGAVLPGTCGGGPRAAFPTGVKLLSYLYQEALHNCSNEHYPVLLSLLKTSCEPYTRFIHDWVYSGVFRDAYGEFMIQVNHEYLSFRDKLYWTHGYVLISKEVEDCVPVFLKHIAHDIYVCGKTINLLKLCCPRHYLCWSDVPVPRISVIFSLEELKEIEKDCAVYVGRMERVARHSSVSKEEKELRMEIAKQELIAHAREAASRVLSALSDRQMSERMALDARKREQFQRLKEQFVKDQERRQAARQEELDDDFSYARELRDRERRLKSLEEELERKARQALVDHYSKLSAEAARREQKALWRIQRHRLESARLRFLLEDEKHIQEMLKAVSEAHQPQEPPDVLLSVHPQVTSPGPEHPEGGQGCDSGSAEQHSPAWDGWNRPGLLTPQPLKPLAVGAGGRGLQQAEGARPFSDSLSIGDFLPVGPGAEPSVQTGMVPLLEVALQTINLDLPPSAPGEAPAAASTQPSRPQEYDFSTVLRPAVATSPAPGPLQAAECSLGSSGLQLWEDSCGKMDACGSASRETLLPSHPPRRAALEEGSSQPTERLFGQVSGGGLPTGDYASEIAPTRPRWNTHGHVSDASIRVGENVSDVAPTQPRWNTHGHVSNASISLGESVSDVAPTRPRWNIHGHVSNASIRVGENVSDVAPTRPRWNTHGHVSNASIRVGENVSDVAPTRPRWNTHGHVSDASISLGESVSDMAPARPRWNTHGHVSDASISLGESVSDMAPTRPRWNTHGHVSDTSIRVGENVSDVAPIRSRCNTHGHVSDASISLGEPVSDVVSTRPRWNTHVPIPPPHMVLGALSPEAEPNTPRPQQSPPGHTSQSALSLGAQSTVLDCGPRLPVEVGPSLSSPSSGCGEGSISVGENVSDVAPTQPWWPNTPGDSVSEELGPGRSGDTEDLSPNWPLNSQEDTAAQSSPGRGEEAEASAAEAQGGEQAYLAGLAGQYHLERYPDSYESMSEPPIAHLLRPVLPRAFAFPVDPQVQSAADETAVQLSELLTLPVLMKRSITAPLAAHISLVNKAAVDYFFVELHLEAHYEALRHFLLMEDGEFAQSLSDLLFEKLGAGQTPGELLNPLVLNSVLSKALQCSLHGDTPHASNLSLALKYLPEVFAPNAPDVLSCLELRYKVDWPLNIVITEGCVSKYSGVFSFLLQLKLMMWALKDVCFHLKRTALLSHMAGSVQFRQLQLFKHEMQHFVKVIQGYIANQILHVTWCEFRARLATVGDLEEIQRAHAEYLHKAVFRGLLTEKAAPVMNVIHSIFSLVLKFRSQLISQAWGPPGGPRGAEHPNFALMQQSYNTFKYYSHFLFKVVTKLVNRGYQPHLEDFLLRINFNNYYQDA
UniProt Q96G28: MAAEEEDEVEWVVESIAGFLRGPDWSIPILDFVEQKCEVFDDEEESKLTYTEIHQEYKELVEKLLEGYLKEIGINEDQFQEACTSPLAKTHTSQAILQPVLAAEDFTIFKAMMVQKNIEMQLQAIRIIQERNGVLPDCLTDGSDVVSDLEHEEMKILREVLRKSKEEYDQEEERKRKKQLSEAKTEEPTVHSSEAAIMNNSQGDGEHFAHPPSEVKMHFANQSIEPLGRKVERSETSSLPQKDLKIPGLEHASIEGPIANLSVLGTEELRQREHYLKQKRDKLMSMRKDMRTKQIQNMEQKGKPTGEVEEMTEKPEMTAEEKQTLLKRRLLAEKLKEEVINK

The list shows a part of the results. Most values lie at the level of the controls, where differences are scatter.

Compound in this test: Cc1nc(Nc2ncc(C(=O)Nc3c(C)cccc3Cl)s2)cc(N2CCN(CCO)CC2)n1 [dasatinib]
The experiment in a line: log2 fold change of tryptic peptide abundance, ligand vs vehicle (limited proteolysis) (log2 ratio); higher = more trypsin-susceptible (destabilized). The note with it: ligand concentration: 5 uM; sample: K562 cleared lysate.
“UniProt Q96JN0 (peptide sequence: SQSEPSEQDGVLDLSTKK, peptide start residue: 72)”: the log2 fold change came to 0.319.

Regarding “ZNF48 (peptide sequence: AATAATQGPK, peptide start residue: 260) (UniProt Q96MX3)”, the log2 fold change was -0.383.

In the case of “ZFP91 (peptide sequence: KAEYPRR, peptide start residue: 73) (UniProt Q96JP5)”, the log2 fold change is -0.237.

“SENP8 (peptide sequence: QVAEKLEAFLGR, peptide start residue: 131) (UniProt Q96LD8)”: the log2 fold change is -0.28.

“UniProt Q96FT9 (peptide sequence: RAQQESAQAENHLNGK, peptide start residue: 25)”: the log2 fold change is -0.53.

As for “RAB40C (peptide sequence: SIRPPQSPPQNCSR, peptide start residue: 262) (UniProt Q96S21)”, the log2 fold change was 0.442.

For “FAM193B (peptide sequence: GGTLGGIPGEPAVDHR, peptide start residue: 457) (UniProt Q96PV7)”, the log2 fold change is -0.216.

In the case of “ZNF512 (peptide sequence: RIKPAATSHVEGSGGVSAK, peptide start residue: 82) (UniProt Q96ME7)”, the log2 fold change is -0.288.

In the case of “UniProt Q96H22 (peptide sequence: GPGEDVDLFDMK, peptide start residue: 91)”, the log2 fold change is -0.434.

With “UniProt Q96GD3 (peptide sequence: TVLEHQPGQR, peptide start residue: 264)”, the log2 fold change came out at 0.0944.

Turning to “WDR24 (peptide sequence: HEIVDTPPGPEHLQDK, peptide start residue: 576) (UniProt Q96S15)”, the log2 fold change was 0.157.

With “RPRD1A (peptide sequence: HVSSETDESCKK, peptide start residue: 91) (UniProt Q96P16)”, the log2 fold change was 0.623.

For “RBM41 (peptide sequence: KLTQPIEFVPEDEIQR, peptide start residue: 270) (UniProt Q96IZ5)”, the log2 fold change is -0.48.

On to “BBS4 (peptide sequence: AAIEVYNEAAK, peptide start residue: 119) (UniProt Q96RK4)”, for which the log2 fold change came to 0.209.

For the target “UniProt Q96M11 (peptide sequence: CDLANGVIPR, peptide start residue: 281)”, the log2 fold change worked out at 0.284.

Turning to “PGAM5 (peptide sequence: NVESGEEELASK, peptide start residue: 77) (UniProt Q96HS1)”, the log2 fold change was -0.0606.

Regarding “UIMC1 (peptide sequence: KAIAESLNSCRPSDASATR, peptide start residue: 112) (UniProt Q96RL1)”, the log2 fold change was determined as 0.393.

Regarding “COG3 (peptide sequence: DHCALVR, peptide start residue: 361) (UniProt Q96JB2)”, the log2 fold change was -0.338.

For the target “IMP4 (peptide sequence: YLFPVPK, peptide start residue: 205) (UniProt Q96G21)”, the log2 fold change is -0.319.

For “NGLY1 (peptide sequence: ISGSVAWR, peptide start residue: 459) (UniProt Q96IV0)”, the log2 fold change was -0.0808.

“C5orf30 (peptide sequence: MIKEPADTEVLQYQLQHLTLR, peptide start residue: 176) (UniProt Q96GV9)”: the log2 fold change was -0.484.

Consider “CLPTM1L (peptide sequence: VNEFGESYEEK, peptide start residue: 520) (UniProt Q96KA5)”, for which the log2 fold change was -0.0177.

For “TUBGCP6 (peptide sequence: VGENVSDVAPIR, peptide start residue: 1225) (UniProt Q96RT7)”, the log2 fold change is -0.157.

On to “MAGEB10 (peptide sequence: SQFPVILSR, peptide start residue: 147) (UniProt Q96LZ2)”, for which the log2 fold change was found to be 0.238.

“UniProt Q96G28 (peptide sequence: DKLMSMR, peptide start residue: 281)”: the log2 fold change is -0.138.

Take “THOC1 (peptide sequence: NEGCPSFVKER, peptide start residue: 393) (UniProt Q96FV9)”: the log2 fold change turned out to be 0.603.

For the target “OTUB1 (peptide sequence: FFEHFIEGGR, peptide start residue: 189) (UniProt Q96FW1)”, the log2 fold change is -0.354.

Consider “LRCH3 (peptide sequence: VAEITKEQR, peptide start residue: 339) (UniProt Q96II8)”, for which the log2 fold change is -0.429.
